Measured values: the supplement of paper PMC3334620
Whole data set: some 33,000 sequences, median “E-score (-0.5 to 0.5)” near -0.0059, cut for the highest 2% near 0.26. This is one part of the list.

These sequences were tested against T1, Cin5 (UniProt P40917) (assay: PBM E-score (8-mer binding enrichment) (E-score (-0.5 to 0.5)); higher = stronger / more preferred TF binding). Conditions: protein concentration: 100 nM; construct: GST-full length.
T1 sequence: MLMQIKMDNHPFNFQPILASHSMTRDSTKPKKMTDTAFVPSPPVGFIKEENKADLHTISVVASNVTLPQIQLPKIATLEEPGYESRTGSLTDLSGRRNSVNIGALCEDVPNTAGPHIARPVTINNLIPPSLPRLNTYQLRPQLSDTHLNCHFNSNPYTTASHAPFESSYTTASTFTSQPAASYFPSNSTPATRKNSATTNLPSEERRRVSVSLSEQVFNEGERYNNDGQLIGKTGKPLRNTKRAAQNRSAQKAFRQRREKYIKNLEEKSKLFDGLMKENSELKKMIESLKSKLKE
Summary of the method: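 GST-tagged yeast TFs (full-length or DNA-binding domain) were made by PURExpress in vitro transcription/translation and applied at about 100-200 nM to universal all-10-mer Agilent arrays. The arrays were made double-stranded by primer extension, on fresh or once-stripped slides. Bound protein was detected with fluorescent anti-GST, and scans were normalised with masliner. Each ungapped eight-base word, pooled with its reverse complement, received an E-score (modified Wilcoxon-Mann-Whitney statistic) from the Universal PBM Analysis Suite.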

Sequence | PBM E-score
CATTCGGC | 0.00096
GGCTGACA | 0.239
AAAGGTGG | 0.0351
ACGGCCTA | -0.0309
ACCTGAGC | -0.0629
ACTCAGAT | 0.099
ACGATTAA | 0.0274
AGATGGCA | 0.0435
TCCGCGCA | 0.00502
AACTATCA | 0.184
GTATTACA | 0.34
CTGCGCGC | 0.163
CGGTGCCA | -0.331
AAAGCCCG | -0.123
GTTCAGAA | -0.0685
AACATTCG | -0.0491
AATTACCG | 0.0795
AACAAGAA | 0.103
AGTGGATG | 0.0625
ACAGACCC | -0.148
TACCTGAA | 0.0966
CAACAGCA | -0.0833
CAAACGAG | 0.00716
ATATTGAA | 0.0267
AATCATAG | 0.291

Sequence | PBM E-score
GACCGGAC | -0.102
CTCTAATC | -0.145
CACGAGTC | -0.106
ACCTTCGC | -0.135
CAGCGGAG | 0.015
ATTAAGGA | 0.0984
ATTCTTTG | 0.108
GCTGATGA | 0.142
GCCATTCA | 0.0283
AGCTGCGA | -0.0401
CTAGTGAA | 0.00047
ACCCAAAC | 0.214
CCAGGGAC | -0.267
ATGTCTTC | -0.192
ATCCCCAC | 0.101
CAGGTCCA | -0.0937
CTTGCGCC | -0.147
CACCACTG | -0.118
ATCGACGA | -0.0409
CCGACTAC | -0.119
ACGAAGCG | -0.0772
CAAAGTGG | -0.0385
AGTACGTA | 0.229
GGTAGACC | -0.276
GACCGACC | -0.0743

Sequence | PBM E-score
GTGACCGA | -0.0493
AAGAGGCC | -0.123
AGCGCCCT | -0.05
GTTCGTGA | -0.243
ATAGCACC | 0.00185
CGCCATAG | -0.0304
ATGTAAAG | 0.0925
AGGTCTTA | -0.071
CAGAGTCG | 0.0722
CAGCATAG | 0.0061
ACGCAATG | -0.0511
CGGCCATA | -0.161
CACGGTGA | -0.0758
CTCGGCGC | 0.0133
GAGACCTC | -0.108
ACACACGC | 0.0303
AACCGTGA | -0.0786
ACCTCGCA | -0.06
AACAGCAA | 0.144
CGCCAAGC | -0.235
AGTACGCA | -0.185
AAGAGACG | 0.0168
CAGACTAA | -0.035
ATGTACCG | 0.00371
AAGGAGTG | 0.0324

Individual results from the list:
Under PBM E-score, CGCCAAGC has the entry -0.235
Under PBM E-score, AGTACGCA has the entry -0.185
Under PBM E-score, GGCTGACA has the entry 0.239
Under PBM E-score, GTATTACA has the entry 0.34

The list goes on:

Sequence | PBM E-score
ACCAATAT | 0.323
CGGCTCTA | -0.0308
CTCAGAAA | 0.0121
CTTACCCC | -0.193
ACTTGTTG | -0.163
ACTTCTGC | 0.134
CATGACGC | 0.0601
ATTATGGG | 0.0617
CAAGACCA | -0.0752
AAGGAGGC | -0.233
ATAGAATA | 0.277
GTCTGCTA | -0.074
CCCCCTCG | -0.401
AGAGATAC | 0.0582
CCAAGAGG | -0.112
AGAGCAAA | -0.055
AGGGTGTC | -0.136
CAGGAGAG | -0.226
AAGATATA | 0.152
CCTGTGTA | 0.0446
CTGCAACA | 0.0981
ATCTATCA | 0.0882
AATACTAT | 0.214
ACCCGTAA | -0.0289
CGCGGGGA | 0.216

Sequence | PBM E-score
CCCTCGAC | -0.114
GTACGTAC | -0.00455
GTCATTCA | 0.0611
GCAAAACA | 0.138
ATGACAAG | 0.108
GAGCCTTA | -0.14
GACTTGGC | -0.178
CGTCGGCC | -0.0669
CGGGCTTA | 0.0462
ACCTCATC | 0.0947
CGGACCCG | -0.123
GCTGCACC | -0.0592
CGCATTAC | 0.143
AGAGCTTA | 0.0142
ATCTCATA | 0.0166
CTACCATC | -0.0801
GAGGCCGC | -0.314
CCCGGAAC | 0.0654
AACTGTAA | 0.205
CGTTCGGC | 0.0473
CGTAACTA | 0.097
AAAAGAGC | -0.0975
AGTATATC | 0.126
ATGTAGGA | -0.152
CGGTTTTC | 0.0743

Sequence | PBM E-score
ATCGACAT | 0.0947
GAAGGCGA | -0.0397
ATCATACC | 0.168
GGCTACCC | -0.268
GGATCCGA | -0.105
GACATGTC | -0.0531
ACCCGGAC | -0.132
AAAAAACA | 0.284
ATTATCTA | 0.315
GTTATGCA | 0.0592
AAGAAACG | -0.0122
TCAGTCGA | 0.129
CCTGAGAA | 0.0088
ATATACTA | 0.318
CAGAGCGG | -0.0525
CCTGCCTA | 0.0485
AGTTGTTG | 0.0199
CCCGTGTA | -0.0984
CCACGGAC | -0.237
CGAGCCAA | -0.00363
AGCGAGCA | 0.0383
GTCGCCTA | -0.165
AGGTATTC | 0.0294
ACGCGGGC | -0.0161
AATACGCA | 0.152

6 consecutive entries from above, for reference:
Sequence | PBM E-score
GGATCCGA | -0.105
GACATGTC | -0.0531
ACCCGGAC | -0.132
AAAAAACA | 0.284
ATTATCTA | 0.315
GTTATGCA | 0.0592

Following part.

Sequence | PBM E-score
AAATCAAC | 0.133
CTCGCTCC | -0.0765
ACACCAGG | -0.221
CGATAATC | 0.00964
ACGTCACC | 0.129
GTGGGACA | -0.227
CAAGTCCC | -0.224
CACTGAAA | 0.108
GACCGTAC | -0.276
ATGTCCAC | -0.00331
ATCCTATA | 0.212
AGTCGCTA | -0.223
CATAGCCA | 0.0386
CTAGGCCC | -0.227
AGCGGGTG | -0.164
GCAAGGGA | -0.233
ACCTTCAC | -0.107
ATATTATC | 0.233
GATTACAC | 0.233
ATTTCGGA | 0.0876
GTGTGTCA | 0.0629
GGGTTTGA | 0.0823
GGACACGA | -0.254
CATCAGAA | 0.139
GAAACCCC | -0.102

Sequence | PBM E-score
AGGGCTGC | -0.185
CAGTCCTA | -0.0967
GAGTTGAC | -0.058
GAGCCAAC | -0.053
CAGCGATG | -0.0506
ACCGGACT | -0.118
AACTAGGC | -0.102
CGCTTCCG | -0.0349
AGTTCCCG | -0.0236
AGCAAGAA | 0.0824
GTCTGCAC | -0.187
AGCTTAAG | -0.0114
CTTTGCTC | -0.0382
AAAGAGCC | -0.204
ATGGCCTG | -0.0934
TAGCTGAA | 0.0731
TACACTAA | 0.0126
ACCGCCCC | 0.00527
ACATCACG | -0.028
ATGAGATG | 0.133
ACGGTCCA | -0.195
CCCCGCTC | -0.341
CGATCAAC | -0.204
GCTATATA | 0.153
CCGCCAGC | -0.145

Sequence | PBM E-score
GGAAGAGA | 0.0397
GAACGTCA | -0.161
CGGTATTA | 0.0488
ACAGATGG | -0.0571
ATGGTCGA | -0.0503
AGGATGAC | -0.091
ACACGTGT | -0.0679
GGAGACTA | -0.043
ATTTCATG | 0.0256
GATATGGC | -0.129
CTGTTGGA | -0.0447
AGACAGAA | 0.0862
CCGGGAGG | -0.192
CGAAATGA | 0.19
CAGAAGGC | -0.1
ATTGAGTA | 0.262
AAGGACCA | -0.0692
ATATCGCA | -0.00978
AGCGGGAT | 0.0177
